According to PMC10334825:
Results are given in words; binding and its absence hold for the method and conditions named. Binding seen in cells or lysates may run through a third protein. Some results given as binding are weak or reduced against the parent protein; the word gives no strength. For part of these data: Where a sequence is shown, tags or fusion partners need not be part of it.

Sequences of proteins named here, by UniProt entry; tags and fusion partners are left off.
UniProt Q13547: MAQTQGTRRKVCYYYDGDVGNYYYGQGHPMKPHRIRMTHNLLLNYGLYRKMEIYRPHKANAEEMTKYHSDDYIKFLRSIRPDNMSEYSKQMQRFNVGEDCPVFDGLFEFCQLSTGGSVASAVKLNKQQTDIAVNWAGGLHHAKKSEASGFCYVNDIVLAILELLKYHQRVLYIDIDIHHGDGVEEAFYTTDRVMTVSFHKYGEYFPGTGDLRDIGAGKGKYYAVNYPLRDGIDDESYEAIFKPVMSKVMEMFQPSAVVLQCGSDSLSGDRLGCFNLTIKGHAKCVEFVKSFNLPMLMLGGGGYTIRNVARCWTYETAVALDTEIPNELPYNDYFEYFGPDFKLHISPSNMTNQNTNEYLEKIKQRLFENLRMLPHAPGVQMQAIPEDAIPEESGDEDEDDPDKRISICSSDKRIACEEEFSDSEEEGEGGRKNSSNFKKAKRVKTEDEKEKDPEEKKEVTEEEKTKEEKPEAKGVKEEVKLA
UniProt O09106: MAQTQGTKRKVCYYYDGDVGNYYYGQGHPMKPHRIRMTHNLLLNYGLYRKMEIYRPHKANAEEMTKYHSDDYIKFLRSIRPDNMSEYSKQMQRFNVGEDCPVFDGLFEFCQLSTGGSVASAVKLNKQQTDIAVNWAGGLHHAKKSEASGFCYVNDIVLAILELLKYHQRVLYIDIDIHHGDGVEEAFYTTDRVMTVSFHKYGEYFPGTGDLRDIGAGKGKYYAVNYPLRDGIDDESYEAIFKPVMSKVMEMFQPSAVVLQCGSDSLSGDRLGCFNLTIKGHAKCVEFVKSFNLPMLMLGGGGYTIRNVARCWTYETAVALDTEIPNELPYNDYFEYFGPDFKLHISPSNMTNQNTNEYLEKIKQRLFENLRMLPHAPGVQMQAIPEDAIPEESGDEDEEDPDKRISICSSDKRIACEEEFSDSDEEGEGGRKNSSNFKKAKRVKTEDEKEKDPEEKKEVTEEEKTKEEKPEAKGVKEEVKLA

Columns and labels:
[1] = target: T1, RNF157 (RING finger 157), endogenous, human CD4+ T cells (human (endogenous in human CD4+ T cells)) (UniProt Q96PX1); experiment: co-IP; endogenous proteins in human CD4+ T cells; Nonidet P-40 lysis buffer (150 mM NaCl, 1 mM EDTA, 1% NP-40), protein G Sepharose beads, washes with lysis buffer containing 500 mM NaCl, immunoblot
T1 sequence: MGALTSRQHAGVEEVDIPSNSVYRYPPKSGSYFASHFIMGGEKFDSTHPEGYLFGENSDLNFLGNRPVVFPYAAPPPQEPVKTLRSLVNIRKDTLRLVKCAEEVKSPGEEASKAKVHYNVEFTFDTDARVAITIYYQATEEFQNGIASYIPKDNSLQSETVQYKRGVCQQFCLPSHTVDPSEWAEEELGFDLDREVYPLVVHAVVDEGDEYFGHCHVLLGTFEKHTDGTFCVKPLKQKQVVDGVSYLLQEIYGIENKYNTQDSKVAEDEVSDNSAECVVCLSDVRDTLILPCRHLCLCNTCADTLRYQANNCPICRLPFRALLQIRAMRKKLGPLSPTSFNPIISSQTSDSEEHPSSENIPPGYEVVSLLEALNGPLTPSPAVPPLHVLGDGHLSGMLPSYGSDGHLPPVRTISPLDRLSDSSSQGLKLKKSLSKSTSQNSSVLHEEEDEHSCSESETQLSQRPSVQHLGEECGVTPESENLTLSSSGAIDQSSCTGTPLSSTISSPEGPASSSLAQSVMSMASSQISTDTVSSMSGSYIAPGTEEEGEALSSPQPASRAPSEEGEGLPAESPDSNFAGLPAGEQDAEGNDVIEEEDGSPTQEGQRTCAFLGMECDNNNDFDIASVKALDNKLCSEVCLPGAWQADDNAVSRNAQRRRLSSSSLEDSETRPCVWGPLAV

[2] = target: T2, Flag-RNF157 (mouse), retrovirally expressed in mouse CD4+ T cells (mouse) (UniProt Q3TEL6); experiment: co-IP; mouse naive CD4+ T cells infected with retrovirus expressing Flag-RNF157, stimulated with anti-CD3 plus anti-CD28 for 12 h; IP with Flag antibody, immunoblot; washes with 500 mM NaCl
T2 sequence: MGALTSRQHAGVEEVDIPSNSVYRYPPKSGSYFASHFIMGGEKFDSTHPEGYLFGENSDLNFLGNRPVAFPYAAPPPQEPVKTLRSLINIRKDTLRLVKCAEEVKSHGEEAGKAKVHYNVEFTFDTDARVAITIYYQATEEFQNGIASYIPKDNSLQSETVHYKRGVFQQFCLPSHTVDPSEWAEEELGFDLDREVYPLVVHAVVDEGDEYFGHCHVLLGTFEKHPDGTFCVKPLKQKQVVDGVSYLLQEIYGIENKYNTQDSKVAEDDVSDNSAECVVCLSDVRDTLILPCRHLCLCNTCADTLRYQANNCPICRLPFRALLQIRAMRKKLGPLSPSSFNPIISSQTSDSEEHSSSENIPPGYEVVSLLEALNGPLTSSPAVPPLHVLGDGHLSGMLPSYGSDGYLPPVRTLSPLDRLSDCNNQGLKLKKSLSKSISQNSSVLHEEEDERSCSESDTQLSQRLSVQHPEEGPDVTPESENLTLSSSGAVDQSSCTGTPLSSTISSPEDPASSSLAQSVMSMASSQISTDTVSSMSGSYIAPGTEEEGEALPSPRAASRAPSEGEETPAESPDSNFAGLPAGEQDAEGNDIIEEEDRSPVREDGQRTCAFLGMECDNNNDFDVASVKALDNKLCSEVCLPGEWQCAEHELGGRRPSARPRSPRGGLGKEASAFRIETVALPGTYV

[3] = target: T3, Flag-RNF157 (mouse), transfected in HEK293 cells (mouse) (UniProt Q3TEL6); experiment: co-IP; HEK293 cells transfected with indicated plasmids for 24 h; Nonidet P-40 lysis buffer (150 mM NaCl, 1 mM EDTA, 1% NP-40), protein G Sepharose beads, washes with 500 mM NaCl, immunoblot
T3 sequence: T2 sequence

“HDAC1 (histone deacetylase 1), endogenous, human CD4+ T cells (from UniProt Q13547 1-482)” was tested, and the binding [1] was “binds”.

“HDAC1, endogenous, mouse CD4+ T cells (from UniProt O09106 1-482)” was tested, and the binding [2] was “binds”.

In the case of “Myc-HDAC1 (WT), transfected in HEK293 cells (from UniProt O09106 1-482)”, the binding [3] was “binds”.
